This is an account of results in publication PMC7547098.

Chains of the proteins cited; added tags and fusions are not shown. Lines headed by an entry give the natural chain unless they say otherwise; changes in a name come on top.
UniProt P61957: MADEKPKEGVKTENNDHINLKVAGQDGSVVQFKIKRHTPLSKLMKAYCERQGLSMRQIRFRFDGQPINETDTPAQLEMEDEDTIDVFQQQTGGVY

Results are given in words; binding and its absence hold for the method and conditions named. In cells and extracts the contact can be indirect. Binding calls can cover weak binding; strength is not graded here.

In the assay the target is SUMO2, endogenous in mouse heart (mouse (endogenous in mouse heart)) (UniProt P61957). Briefly: co-IP; endogenous proteins, 1 mg mouse heart protein in RIPA buffer, about 4 ug anti-SUMO2/3 antibody (mouse monoclonal, Abcam), Dynabeads, 4 °C, blot with anti-HectD3.

B1: HectD3, endogenous in mouse heart (protein, UniProt Q3U487 1-861)
chain: MAGPGPGAALESPRQLLGRVRFLAEAARSLRAGLPLPAALAFVPREVLYKLYKDPAGPSRVLLPVWEAEGLGLRVGAVGAAPGTGSGPLRAARDSIELRRGACVRTTGEELCNGHGLWVKLTKEQLAEHLSDCSLDEGWLLVCRPAEGGARLVPIDTPDHLQRQQQLFGVDYRPVLRWEQVVDLTYSHRLGSRPQPAEAYTEAIQRLLYVPPTWTYECDEDLIHFLYDHLGKEDENLGSVKQYVESIDVSSYTEEFNVSCLTDSNADTYWESDGSQCQHWVRLTMKKGTIVKKLLLTVDTTDDNFMPKRVVVYGGEGDNLKKLSDVNIDETLIGDVCVLEDMTVHLPIIEIRIVECRDDGIDVRLRGVKIKSSRQRELGLNADLFQPASLVRYPRLEGTDPEVLYRRAVLLQRFIKILDSVLHHLVPAWDHTLGTFSEIKQVKQFLLLSRQRPSLVAQCLRDSESSKPSFMPRLYINRRLAMEHRACPSRDPACKNAVFTQVYEGLKPSDKYEKPLDYRWPMRYDQWWECKFIAEGIIDQGGGFRDSLADMSEELCPSSADTPVPLPFFVRTANQGNGTGEARDMYVPNPSCRDFAKYEWIGQLMGAALRGKEFLVLALPGFVWKQLSGEEVSWSKDFPAVDSVLVKLLEVMEGVDKETFEFKFGKELTFTTVLSDQQVVELIPGGTGIVVEYEDRSRFIQLVRKARLEESKEQVAAMQAGLLKVVPQAVLDLLTWQELEKKVCGDPEVTVDALRKLTRFEDFEPSDTRVQYFWEALNNFTNEDRSRFLRFVTGRSRLPARIYIYPDKLGYETTDALPESSTCSSTLFLPHYASAKVCEEKLRYAAYNCVAIDTDMSPWEE
As for B1, the binding result was “binds”.
